Measurements reported in paper PMC12695667 (Nature, 2025).

Assay: FTIR spectrometry of SC lipid order (Franz diffusion cells)
Parameters: species or system C57BL/6J mice
Details: mouse dorsal skin SC, 24 h, positive control

SMILES: CCCCCCCC/C=C\CCCCCCCC(=O)O [Oleic acid, oleic acid]
- Blue shift of asymmetric methylene peak versus PBS-treated skin: 3 cm⁻¹
- Blue shift of symmetric methylene peak versus PBS-treated skin: 2.14 cm⁻¹
